Experimental findings from publication PMC2670261, “Characterization of the interaction between Actinin-Associated LIM Protein (ALP) and the rod domain of α-actinin” (BMC Cell Biology, 2009) are described below.

Amino acid sequences for entries named in this document (tags omitted). Residues count along the entry.
α-actinin 2 rod domain, spectrin repeats 1-4 (R1-R4) (P35609, residues 274-746): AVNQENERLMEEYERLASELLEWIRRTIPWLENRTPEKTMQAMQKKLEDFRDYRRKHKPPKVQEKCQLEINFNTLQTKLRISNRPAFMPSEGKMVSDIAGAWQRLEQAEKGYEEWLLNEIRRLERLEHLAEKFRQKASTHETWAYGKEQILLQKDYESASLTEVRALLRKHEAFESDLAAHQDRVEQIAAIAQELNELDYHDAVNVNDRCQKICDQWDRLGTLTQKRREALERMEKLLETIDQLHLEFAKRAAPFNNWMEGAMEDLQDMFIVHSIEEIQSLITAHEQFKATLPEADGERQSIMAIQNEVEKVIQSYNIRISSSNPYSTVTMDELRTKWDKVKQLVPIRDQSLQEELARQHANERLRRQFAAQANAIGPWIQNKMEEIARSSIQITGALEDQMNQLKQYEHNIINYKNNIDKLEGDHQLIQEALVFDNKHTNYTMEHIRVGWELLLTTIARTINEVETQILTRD
α-actinin 2 spectrin repeats 2 and 3 (R2-R3) (P35609, residues 371-637): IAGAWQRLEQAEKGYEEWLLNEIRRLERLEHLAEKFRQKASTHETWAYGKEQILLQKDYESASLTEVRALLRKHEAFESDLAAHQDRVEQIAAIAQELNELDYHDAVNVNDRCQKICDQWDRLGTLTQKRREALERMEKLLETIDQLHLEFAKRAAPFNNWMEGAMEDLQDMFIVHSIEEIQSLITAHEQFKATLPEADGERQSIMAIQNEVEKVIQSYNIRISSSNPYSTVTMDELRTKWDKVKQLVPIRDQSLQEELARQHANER

No constants are given. Whether binding was seen depends on the method and setting.

Assay [1] concerns the target T1, ALP peptide 3 (residues 175-196) (human).
T1 sequence (peptide): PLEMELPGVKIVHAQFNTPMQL
As to the kind of experiment: SPR; Biacore 3000; ALP107-273 or peptide 3 immobilised by amine coupling on CM5; R1-R4 or R2-R3 as soluble analyte; 20 mM Tris pH 7.4, 150 mM NaCl, 0.005% P20; apparent Kd; both purified. (In general: Surface plasmon resonance follows binding to a sensor surface in real time, without labels.)

In assay [2] the target is α-actinin 2 rod domain, spectrin repeats 1-4 (R1-R4) (human) (UniProt P35609). As to the kind of experiment: SPR; Biacore 3000; peptide 3 compared with its scrambled version on the rod domain (Fig 7D); which one was immobilised is not told; 20 mM Tris pH 7.4, 150 mM NaCl, 0.005% P20; both purified.

“α-actinin 2 spectrin repeats 2 and 3 (R2-R3) (from UniProt P35609 371-637) (domain or fragment)”: in assay [1], the binding entry was “no binding”.

In the case of MNKPEQALLVQIHPLVTEPFMG [scrambled version of peptide 3], in assay [2], the binding result is listed as “no binding”.
